{"sequences": {"note": "Sequences of proteins named here, by UniProt entry; tags and fusion partners are left off. A change or cut given only in a name is not applied to a line headed by its entry. A line that says so, or that is headed by a name, gives the form on record, which may keep a tag or linker.", "UniProt P0CH25": "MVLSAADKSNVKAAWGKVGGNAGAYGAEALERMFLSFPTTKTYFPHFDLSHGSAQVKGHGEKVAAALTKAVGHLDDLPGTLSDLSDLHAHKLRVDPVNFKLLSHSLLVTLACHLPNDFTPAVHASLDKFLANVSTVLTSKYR", "human haptoglobin (phenotype 1-1) (P00738, form named)": "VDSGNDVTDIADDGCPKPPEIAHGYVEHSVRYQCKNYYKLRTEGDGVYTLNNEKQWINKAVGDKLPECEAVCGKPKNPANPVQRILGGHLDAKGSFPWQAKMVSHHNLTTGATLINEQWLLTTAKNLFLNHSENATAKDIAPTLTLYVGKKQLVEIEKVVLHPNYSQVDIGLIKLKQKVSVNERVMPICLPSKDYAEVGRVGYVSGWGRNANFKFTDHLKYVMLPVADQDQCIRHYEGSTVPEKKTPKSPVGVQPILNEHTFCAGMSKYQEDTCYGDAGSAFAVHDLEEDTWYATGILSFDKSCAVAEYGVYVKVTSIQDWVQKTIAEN"}, "source": "patent US7968103B2", "about": "“Compositions comprising fetal hemoglobin and bacterial endotoxin and optionally additional fetal liver components” (priority 2003, dated 2011)", "key": {"[1]": {"biological_target": "fetal ovine hemoglobin (HbF) present in CLP1b (sheep) (UniProt P0CH25)", "test": "preincubation of CLP1b with haptoglobin before the LPS plate adsorption assay; SDS-PAGE"}, "[2]": {"biological_target": "fetal ovine hemoglobin (HbF) present in CLP1b (sheep) (UniProt P0CH25)", "test": "hemoglobin-directed depletion with haptoglobin before the LPS plate adsorption assay; SDS-PAGE with silver staining"}}, "note": "No constants are given. Whether binding was seen depends on the method and setting. Some binding calls cover weakened binding; strength is not graded here.", "data": [{"substance": "human haptoglobin (phenotype 1-1) (from UniProt P00738 19-347)", "values": [{"measurement": "binding", "setting": "[1]", "result": "binds"}, {"measurement": "binding", "setting": "[2]", "result": "binds"}]}]}
